According to patent publication US6479281B1, “Infectious pseudotyped lentiviral vectors lacking matrix protein and uses thereof” (Dana-Farber Cancer Institute, Inc., priority 1998, dated 2002):
For at least one compound, name, drawing or mass did not settle the structure.

Test system: monocyte-derived macrophages (MDM)
Assay type: cell-based, human
Conditions: 5 μM

With `Cc1cn([C@H]2C[C@H](N=[N+]=[N-])[C@@H](CO)O2)c(=O)[nH]c1=O` [azidothymidine] the “CAT activity in MDM in the presence of inhibitor” value was “reduced to background levels”.
